About 18,000 (4.4%) of roughly 410,000 compounds were called active. The inconclusive results got no clear call from the source; some entries with a clear call stand among them for comparison. Cut-off read from the data, not from the text of the source: active = activity change below about -60%; inconclusive = no clear call, values can overlap the other calls; inactive = above about -39%.
test: qHTS Assay for inhibitors of the human cytomegalovirus (HCMV); settings: HFF cells, HCMV-luciferase reporter, 72 h; at 57.5 µM; hits give low values
In short: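 Human foreskin fibroblasts infected with luciferase-reporter HCMV at MOI 1 PFU/cell, compounds at two doses. Luciferase measured 72 h post infection; normalized to buffer-only basal and Salinomycin (10uM) controls.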
% is set by controls: 0 for no effect and ±100 for the full control effect.

Row | SMILES | activity change, negative = inhibition
1 | CCc1cccc(C)c1NC(=O)c1cc(S(=O)(=O)N(C)Cc2ccccc2)ccc1F | inconclusive: -54.7%
2 | CCOc1ccc(C(O)(c2ccccc2OC)C(CN2CCCC2)c2ccccc2)cc1 (stereo not given) | inconclusive: -43.4%
3 | Cc1onc(-c2ccccc2)c1C(=O)NC(=S)NNC(=O)c1ccc(O)cc1 | inactive: 6.25%
4 | CCN(Cc1ccccc1)C(=O)CS(=O)(=O)c1ccccc1 | inconclusive: -42.7%
5 | O=C(CCc1nc(-c2ccc(F)cc2)no1)Nc1cccc(C(=O)NC2CC2)c1 | inactive: 34.1%
6 | O=C(O)CC1(CC(=O)Nc2cccc(C(=O)O)c2)CCCC1 | active: -102%
7 | CCCC(=O)c1ccc(N2CCOCC2)c(F)c1 | inconclusive: -43.4%
8 | CCOc1cc(/C=N/n2nnnc2N)ccc1OCc1c(C)no[n+]1[O-] | inactive: -20.5%
9 | Cc1c(C=O)c2ccccn2c1C(=O)c1ccc(F)cc1 | inconclusive: -51.5%
10 | CC(C)(C)c1ccc(/C=N/NC(=S)NC2CCCCC2)cc1 | inactive: 70%
11 | Cn1cccc1CNC(=O)Nc1ccccc1 | inactive: 6.56%
12 | Cn1c(=O)c(-c2ccccc2)c(O)c2ccccc21 | inconclusive: -57.2%
13 | O=C(NCc1ccccc1)c1ccc([N+](=O)[O-])cc1 | inconclusive: -47.9%
14 | O=C(CCS(=O)(=O)c1ccccc1Cl)NCc1ccc(F)cc1 | inconclusive: -44.9%
15 | C/C(=N\OCC(=O)NC(C)C)c1cccs1 | inactive: 19.4%
16 | CCN(c1ccccc1)S(=O)(=O)c1ccc(Cl)c(NC(=O)CN(C)Cc2cccc(F)c2)c1 | inconclusive: -48.1%
17 | COC(=O)CC1=C(C(=O)OC)C(c2cccs2)C(C#N)=C(N)O1 (stereo not given) | active: -101%
18 | CCOc1ccc(NC(=O)c2ccc(CN3C(=O)C(C)=C(c4ccc(C)cc4)S3(=O)=O)cc2)cc1 | inactive: -6.38%
19 | Cc1cccc(NC(=O)C2CCN(C(=O)c3ccccc3C)CC2)n1 | inconclusive: -54.2%
20 | Cc1cccc(C(=O)NNC(=S)NC(=O)c2ccccc2)c1 | inconclusive: -57.2%
21 | CN(C)c1ccc(NC(=O)CC(NCc2ccccn2)C(=O)O)cc1 (stereo not given) | inactive: 1.23%
22 | O=C1c2ccccc2C(=O)N1CCCc1c[nH]c2ccc(Cl)cc12 | inconclusive: -43.9%
23 | CCC(=O)Nc1ccc2c(c1)Cc1cc([N+](=O)[O-])ccc1-2 | active: -86.2%
24 | O=C(c1ccncc1)c1ccc(N2CCN(C3CC(=O)N(Cc4ccccc4)C3=O)CC2)cc1 (stereo not given) | active: -63.5%
25 | COc1ccccc1NC(=O)CSc1nnnn1-c1ccccc1OC | inconclusive: -44.8%

5 of the compounds above, with tabs.
Row	SMILES	activity change, negative = inhibition
7	CCCC(=O)c1ccc(N2CCOCC2)c(F)c1	inconclusive: -43.4%
8	CCOc1cc(/C=N/n2nnnc2N)ccc1OCc1c(C)no[n+]1[O-]	inactive: -20.5%
9	Cc1c(C=O)c2ccccn2c1C(=O)c1ccc(F)cc1	inconclusive: -51.5%
10	CC(C)(C)c1ccc(/C=N/NC(=S)NC2CCCCC2)cc1	inactive: 70%
11	Cn1cccc1CNC(=O)Nc1ccccc1	inactive: 6.56%
